Some of the results follow. Small differences around the control level are noise.
These targets were tested with CN[C@@H]1C[C@H]2O[C@@](C)([C@@H]1OC)n1c3ccccc3c3c4c(c5c6ccccc6n2c5c31)C(=O)NC4 [staurosporine] (assay: log2 fold change of tryptic peptide abundance, ligand vs vehicle (limited proteolysis) (log2 ratio); higher = more trypsin-susceptible (destabilized)). Settings: ligand concentration: 20 uM; sample: K562 cleared lysate; digestion: 4 min, 22 C (HT-PELSA RT4min, Orbitrap Astral).

Amino acid sequences for entries named in this document (tags omitted). A change or cut given only in a name is not applied to a line headed by its entry.
UniProt Q6UXH1: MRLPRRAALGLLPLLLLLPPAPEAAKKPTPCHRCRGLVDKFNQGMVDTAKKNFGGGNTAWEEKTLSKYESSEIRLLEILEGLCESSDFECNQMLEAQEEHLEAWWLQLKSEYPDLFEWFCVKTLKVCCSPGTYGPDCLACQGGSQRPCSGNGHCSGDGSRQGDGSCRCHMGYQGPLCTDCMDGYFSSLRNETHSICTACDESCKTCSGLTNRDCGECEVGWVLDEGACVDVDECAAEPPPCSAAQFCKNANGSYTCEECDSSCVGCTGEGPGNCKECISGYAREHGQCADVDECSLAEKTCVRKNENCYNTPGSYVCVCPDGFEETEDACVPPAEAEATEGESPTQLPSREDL
UniProt Q6P3W2: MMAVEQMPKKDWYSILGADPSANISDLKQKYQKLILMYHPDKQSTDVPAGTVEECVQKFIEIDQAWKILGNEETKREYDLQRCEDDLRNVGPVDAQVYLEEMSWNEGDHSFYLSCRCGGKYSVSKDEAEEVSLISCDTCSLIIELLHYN
UniProt Q6JQN1: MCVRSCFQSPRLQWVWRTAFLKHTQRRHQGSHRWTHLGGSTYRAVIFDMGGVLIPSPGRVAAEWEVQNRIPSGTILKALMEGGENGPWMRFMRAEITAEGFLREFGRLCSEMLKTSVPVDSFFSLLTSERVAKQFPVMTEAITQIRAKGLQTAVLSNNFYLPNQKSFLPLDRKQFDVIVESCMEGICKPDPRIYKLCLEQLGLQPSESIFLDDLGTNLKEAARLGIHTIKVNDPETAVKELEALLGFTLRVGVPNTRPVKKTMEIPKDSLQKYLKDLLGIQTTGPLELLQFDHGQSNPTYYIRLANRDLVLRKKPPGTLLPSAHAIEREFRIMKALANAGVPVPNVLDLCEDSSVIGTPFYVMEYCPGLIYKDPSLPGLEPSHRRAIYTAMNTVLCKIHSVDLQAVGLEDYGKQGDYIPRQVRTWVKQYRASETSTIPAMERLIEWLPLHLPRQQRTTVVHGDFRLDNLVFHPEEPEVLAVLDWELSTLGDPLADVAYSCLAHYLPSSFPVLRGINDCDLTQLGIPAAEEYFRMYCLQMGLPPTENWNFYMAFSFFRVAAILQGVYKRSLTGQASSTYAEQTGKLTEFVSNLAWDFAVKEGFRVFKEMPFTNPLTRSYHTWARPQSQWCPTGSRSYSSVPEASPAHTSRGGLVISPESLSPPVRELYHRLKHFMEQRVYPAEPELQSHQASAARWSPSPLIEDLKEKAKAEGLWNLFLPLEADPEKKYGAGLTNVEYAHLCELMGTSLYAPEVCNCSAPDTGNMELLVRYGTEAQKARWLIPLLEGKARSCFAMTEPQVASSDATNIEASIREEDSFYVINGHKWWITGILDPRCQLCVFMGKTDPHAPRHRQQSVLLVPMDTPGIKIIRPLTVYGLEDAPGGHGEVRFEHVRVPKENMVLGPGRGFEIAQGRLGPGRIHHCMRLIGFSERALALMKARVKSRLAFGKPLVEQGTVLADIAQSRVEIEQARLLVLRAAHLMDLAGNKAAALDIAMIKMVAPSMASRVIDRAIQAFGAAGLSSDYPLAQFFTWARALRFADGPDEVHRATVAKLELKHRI
UniProt Q68E01, whole entry: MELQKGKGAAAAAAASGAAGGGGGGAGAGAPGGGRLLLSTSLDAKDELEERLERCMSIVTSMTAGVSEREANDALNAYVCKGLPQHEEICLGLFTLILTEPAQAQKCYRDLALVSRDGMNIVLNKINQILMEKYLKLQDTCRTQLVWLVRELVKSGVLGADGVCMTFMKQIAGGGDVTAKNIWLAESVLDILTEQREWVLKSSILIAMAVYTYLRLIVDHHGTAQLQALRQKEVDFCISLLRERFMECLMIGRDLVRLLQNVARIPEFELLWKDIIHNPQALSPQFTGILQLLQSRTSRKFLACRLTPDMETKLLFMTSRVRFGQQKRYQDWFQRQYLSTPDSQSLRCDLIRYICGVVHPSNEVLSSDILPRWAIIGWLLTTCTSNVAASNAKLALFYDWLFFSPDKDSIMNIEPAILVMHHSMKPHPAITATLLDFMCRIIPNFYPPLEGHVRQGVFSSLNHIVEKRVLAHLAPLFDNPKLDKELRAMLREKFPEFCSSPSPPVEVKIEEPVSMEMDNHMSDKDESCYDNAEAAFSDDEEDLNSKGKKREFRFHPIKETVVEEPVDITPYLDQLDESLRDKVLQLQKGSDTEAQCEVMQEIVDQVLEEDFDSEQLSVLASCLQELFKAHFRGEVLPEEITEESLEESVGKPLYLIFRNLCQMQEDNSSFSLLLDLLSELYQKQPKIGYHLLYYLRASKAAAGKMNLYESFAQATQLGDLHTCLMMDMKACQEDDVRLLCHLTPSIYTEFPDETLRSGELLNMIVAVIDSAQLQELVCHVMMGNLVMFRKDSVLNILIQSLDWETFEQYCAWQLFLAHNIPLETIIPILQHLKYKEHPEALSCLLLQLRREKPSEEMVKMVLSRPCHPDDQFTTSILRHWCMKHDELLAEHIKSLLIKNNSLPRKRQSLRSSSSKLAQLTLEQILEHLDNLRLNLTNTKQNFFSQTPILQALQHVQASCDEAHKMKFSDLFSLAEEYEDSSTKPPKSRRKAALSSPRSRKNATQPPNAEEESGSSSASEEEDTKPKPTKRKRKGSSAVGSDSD
UniProt Q68D10: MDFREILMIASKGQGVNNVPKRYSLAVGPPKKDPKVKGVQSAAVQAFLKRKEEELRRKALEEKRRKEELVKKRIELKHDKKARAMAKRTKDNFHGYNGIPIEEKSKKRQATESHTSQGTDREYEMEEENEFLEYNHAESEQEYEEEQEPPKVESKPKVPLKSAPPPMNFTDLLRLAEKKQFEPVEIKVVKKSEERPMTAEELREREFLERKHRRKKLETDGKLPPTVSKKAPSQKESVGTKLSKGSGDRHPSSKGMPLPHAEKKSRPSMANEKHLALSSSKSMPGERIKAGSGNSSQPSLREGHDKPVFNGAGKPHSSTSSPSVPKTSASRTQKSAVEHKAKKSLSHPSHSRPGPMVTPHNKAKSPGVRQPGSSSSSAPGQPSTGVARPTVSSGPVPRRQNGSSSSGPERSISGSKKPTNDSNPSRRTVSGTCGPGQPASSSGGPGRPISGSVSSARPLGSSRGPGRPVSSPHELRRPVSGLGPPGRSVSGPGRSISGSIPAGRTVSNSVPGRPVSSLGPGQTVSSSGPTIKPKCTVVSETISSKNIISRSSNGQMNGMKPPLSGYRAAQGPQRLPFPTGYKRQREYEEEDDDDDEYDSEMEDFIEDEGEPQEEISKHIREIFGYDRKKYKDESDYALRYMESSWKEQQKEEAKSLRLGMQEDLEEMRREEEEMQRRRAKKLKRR
UniProt Q6P1M0: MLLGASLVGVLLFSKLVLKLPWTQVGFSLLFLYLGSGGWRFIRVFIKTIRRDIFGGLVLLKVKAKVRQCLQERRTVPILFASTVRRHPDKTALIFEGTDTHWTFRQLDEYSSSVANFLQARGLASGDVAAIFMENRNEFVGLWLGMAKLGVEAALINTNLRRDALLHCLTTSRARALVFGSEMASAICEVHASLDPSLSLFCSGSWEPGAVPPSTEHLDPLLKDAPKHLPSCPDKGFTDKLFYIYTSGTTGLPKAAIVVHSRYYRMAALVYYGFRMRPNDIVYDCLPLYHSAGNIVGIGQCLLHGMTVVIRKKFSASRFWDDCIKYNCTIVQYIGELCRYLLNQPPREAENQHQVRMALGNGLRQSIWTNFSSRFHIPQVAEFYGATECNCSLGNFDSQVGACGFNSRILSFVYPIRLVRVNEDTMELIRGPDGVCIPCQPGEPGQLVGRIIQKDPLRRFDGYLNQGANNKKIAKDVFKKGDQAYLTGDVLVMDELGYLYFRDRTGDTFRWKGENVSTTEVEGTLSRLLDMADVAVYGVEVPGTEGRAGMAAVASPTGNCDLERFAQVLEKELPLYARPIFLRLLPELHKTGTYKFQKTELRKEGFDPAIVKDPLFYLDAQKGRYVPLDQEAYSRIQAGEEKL
UniProt Q6NYC8: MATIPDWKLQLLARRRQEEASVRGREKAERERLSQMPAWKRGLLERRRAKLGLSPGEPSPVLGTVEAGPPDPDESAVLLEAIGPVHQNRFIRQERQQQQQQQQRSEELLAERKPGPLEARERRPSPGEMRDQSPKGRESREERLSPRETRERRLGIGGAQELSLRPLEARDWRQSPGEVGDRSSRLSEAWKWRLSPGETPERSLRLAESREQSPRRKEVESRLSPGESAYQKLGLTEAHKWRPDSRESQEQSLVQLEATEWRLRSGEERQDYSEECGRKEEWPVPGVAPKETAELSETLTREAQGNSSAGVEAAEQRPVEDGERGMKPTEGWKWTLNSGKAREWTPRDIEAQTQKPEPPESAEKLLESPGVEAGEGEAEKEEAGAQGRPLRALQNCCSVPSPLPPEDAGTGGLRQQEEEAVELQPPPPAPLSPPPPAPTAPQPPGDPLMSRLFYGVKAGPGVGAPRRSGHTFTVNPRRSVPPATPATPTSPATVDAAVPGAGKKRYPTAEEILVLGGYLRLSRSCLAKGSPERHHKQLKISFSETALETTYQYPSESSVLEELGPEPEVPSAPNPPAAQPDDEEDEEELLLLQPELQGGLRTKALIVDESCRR
UniProt Q6ULP2: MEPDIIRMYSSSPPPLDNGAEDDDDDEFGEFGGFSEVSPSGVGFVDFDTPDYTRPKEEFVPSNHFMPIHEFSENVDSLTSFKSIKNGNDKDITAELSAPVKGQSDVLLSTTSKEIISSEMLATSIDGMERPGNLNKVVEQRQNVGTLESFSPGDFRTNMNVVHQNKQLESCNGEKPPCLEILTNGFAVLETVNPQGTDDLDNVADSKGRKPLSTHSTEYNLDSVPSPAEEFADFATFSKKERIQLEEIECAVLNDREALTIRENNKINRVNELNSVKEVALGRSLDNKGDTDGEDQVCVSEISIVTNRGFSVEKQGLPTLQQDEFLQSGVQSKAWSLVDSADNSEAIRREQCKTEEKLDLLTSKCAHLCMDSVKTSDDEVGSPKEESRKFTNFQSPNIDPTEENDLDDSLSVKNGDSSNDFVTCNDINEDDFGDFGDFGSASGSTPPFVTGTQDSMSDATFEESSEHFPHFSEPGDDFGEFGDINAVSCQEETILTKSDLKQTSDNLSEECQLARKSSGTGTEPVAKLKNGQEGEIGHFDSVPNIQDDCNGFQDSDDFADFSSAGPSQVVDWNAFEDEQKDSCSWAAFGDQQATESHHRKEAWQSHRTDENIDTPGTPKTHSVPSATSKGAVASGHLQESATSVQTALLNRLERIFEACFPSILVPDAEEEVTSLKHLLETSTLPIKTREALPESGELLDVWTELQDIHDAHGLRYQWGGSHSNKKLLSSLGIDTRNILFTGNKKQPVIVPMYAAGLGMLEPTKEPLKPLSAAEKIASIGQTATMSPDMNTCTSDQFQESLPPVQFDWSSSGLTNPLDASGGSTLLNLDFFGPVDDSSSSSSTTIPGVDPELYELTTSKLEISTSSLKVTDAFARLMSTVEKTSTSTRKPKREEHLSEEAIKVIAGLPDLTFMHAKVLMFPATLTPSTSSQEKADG
UniProt Q6S8J3, whole entry: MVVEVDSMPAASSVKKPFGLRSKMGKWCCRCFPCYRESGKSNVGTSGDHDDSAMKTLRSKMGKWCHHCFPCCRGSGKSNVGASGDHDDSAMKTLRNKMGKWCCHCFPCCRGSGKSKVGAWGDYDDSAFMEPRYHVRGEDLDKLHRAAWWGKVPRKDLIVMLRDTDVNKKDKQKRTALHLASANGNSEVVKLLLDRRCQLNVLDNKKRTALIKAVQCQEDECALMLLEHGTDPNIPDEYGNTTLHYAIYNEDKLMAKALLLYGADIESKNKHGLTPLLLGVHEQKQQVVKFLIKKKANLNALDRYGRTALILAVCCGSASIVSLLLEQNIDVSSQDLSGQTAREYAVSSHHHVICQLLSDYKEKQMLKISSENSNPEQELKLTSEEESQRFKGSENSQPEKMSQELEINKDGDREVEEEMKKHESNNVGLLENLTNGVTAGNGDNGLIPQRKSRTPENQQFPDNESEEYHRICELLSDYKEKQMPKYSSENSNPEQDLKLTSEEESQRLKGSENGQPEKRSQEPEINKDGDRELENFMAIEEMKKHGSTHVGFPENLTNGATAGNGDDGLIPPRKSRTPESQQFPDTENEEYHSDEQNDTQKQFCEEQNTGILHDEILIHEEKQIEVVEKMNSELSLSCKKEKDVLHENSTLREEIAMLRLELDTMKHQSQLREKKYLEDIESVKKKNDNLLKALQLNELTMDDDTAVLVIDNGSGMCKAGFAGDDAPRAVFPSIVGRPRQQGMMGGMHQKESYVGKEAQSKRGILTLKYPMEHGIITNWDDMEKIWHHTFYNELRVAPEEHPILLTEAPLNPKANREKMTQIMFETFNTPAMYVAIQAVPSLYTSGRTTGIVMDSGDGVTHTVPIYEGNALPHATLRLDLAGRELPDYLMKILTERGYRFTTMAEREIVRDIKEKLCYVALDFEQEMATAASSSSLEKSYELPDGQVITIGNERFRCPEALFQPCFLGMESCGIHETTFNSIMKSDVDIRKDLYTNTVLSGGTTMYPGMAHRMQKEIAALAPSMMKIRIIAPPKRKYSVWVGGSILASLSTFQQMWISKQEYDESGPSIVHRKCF

Question: Which log2 fold change does the source give for “DENND1B (peptide sequence: FCFPFDVER, peptide start residue: 51) (UniProt Q6P3S1)” here?
Answer: The log2 fold change was 0.914.

Question: “CRELD2 (peptide sequence: EHGQCADVDECSLAEKTCVR, peptide start residue: 284) (UniProt Q6UXH1)” was tested. Which log2 fold change did it give?
Answer: The log2 fold change was -0.797.

Question: With “DNAJC24 (peptide sequence: EYDLQRCEDDLR, peptide start residue: 77) (UniProt Q6P3W2)” as the target, how does the log2 fold change read?
Answer: The log2 fold change was -0.418.

Question: With “UniProt Q6P3X8 (peptide sequence: FDMIGHWIIHQDKR, peptide start residue: 547)” as the target, how does the log2 fold change read?
Answer: Its log2 fold change is 0.753.

Question: For “ACAD10 (peptide sequence: AEITAEGFLR, peptide start residue: 94) (UniProt Q6JQN1)”, which log2 fold change is on record?
Answer: Its log2 fold change is 0.611.

Question: With “HMBOX1 (peptide sequence: YHANSMGQR, peptide start residue: 137) (UniProt Q6NT76)” as the target, how does the log2 fold change read?
Answer: Its log2 fold change is 0.364.

Question: How did the log2 fold change turn out when “INTS3 (peptide sequence: IGYHLLYYLR, peptide start residue: 687) (UniProt Q68E01)” was run?
Answer: The log2 fold change was 0.627.

Question: Which log2 fold change does the source give for “SPTY2D1 (peptide sequence: GVQSAAVQAFLK, peptide start residue: 38) (UniProt Q68D10)” here?
Answer: The log2 fold change was -0.542.

Question: How did the log2 fold change turn out when “DENND4C (peptide sequence: MIEDKGPR, peptide start residue: 1) (UniProt Q5VZ89)” was run?
Answer: The log2 fold change was -0.447.

Question: Which log2 fold change does the source give for “SLC27A4 (peptide sequence: ILSFVYPIR, peptide start residue: 409) (UniProt Q6P1M0)” here?
Answer: The log2 fold change was -0.231.

Question: With “UniProt Q6NYC8 (peptide sequence: SGHTFTVNPR, peptide start residue: 468)” as the target, how does the log2 fold change read?
Answer: The log2 fold change was 0.219.

Question: Which log2 fold change does the source give for “DENND5A (peptide sequence: NGNIAGSPLHSYELLKENETIAR, peptide start residue: 449) (UniProt Q6IQ26)” here?
Answer: Its log2 fold change is 0.833.

Question: With “AFTPH (peptide sequence: GQSDVLLSTTSK, peptide start residue: 102) (UniProt Q6ULP2)” as the target, how does the log2 fold change read?
Answer: Its log2 fold change is 0.249.

Question: How did the log2 fold change turn out when “UniProt Q6P1J9 (peptide sequence: QPIPAAYNR, peptide start residue: 284)” was run?
Answer: Its log2 fold change is -0.274.

Question: “UniProt Q6S8J3 (peptide sequence: VAPEEHPILLTEAPLNPK, peptide start residue: 796)” was tested. Which log2 fold change did it give?
Answer: Its log2 fold change is 0.364.

Question: “UniProt Q69YQ0 (peptide sequence: PENSSSASTGGK, peptide start residue: 28)” was tested. Which log2 fold change did it give?
Answer: Its log2 fold change is -1.31.

From the supplement of paper PMC12819154, “High-throughput peptide-centric local stability assay extends protein–ligand identification to membrane proteins, tissues and bacteria” (Nature Structural & Molecular Biology, 2025)
